Assay results taken from article PMC7862700.
The entries are a selection whose mix differs from that of the whole data set. For some assays here: At the low end of the ranking the order means little. Some of the results follow. For some assays here: The source does not settle which construct or isoform was used.

Protein sequences, listed by entry. Tags and fused reporters are not part of them. Lines headed by an entry give the natural chain unless they say otherwise; changes in a name come on top.
UniProt Q00613: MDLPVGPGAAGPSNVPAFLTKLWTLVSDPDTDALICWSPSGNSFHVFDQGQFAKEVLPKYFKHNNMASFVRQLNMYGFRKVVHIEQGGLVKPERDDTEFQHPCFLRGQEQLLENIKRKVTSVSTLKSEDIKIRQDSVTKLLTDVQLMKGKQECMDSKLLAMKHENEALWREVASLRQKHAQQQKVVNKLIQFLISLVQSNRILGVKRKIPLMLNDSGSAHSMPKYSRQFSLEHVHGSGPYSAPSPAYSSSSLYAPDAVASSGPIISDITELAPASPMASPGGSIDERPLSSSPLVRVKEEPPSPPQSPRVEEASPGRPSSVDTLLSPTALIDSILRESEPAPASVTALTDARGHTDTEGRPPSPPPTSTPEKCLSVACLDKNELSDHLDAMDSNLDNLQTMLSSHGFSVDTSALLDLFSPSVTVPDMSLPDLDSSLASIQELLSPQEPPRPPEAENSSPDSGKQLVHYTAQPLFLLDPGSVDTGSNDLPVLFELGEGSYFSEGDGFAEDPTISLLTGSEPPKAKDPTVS

biological target: HSF1 (UniProt Q00613); assay: DAPPL (digital affinity profiling via proximity ligation, sequencing); conditions: 10 mM Tris-HCl pH 7.5, 50 mM NaCl, 1 mM DTT, 4% glycerol, room temperature, 30 min; GST-TFs on glutathione beads, 16-mer random dsDNA library, 0.1% …; high values mean tight binding; double strand, one strand shown; scale: fold enrichment (6-mer frequency, TF over GST control)

Row | Sequence | binding signal
1 | CGGATC | 0.891
2 | TCCTTC | 2.13
3 | CGGCTG | 0.846
4 | CCCGCT | 1.26
5 | TTGTAA | 1.4
6 | CTCCAA | 1.31
7 | CCAACA | 0.836
8 | ATGCCA | 0.933
9 | GTGGCC | 0.703
10 | TTGGGC | 0.876
11 | CCGTAT | 0.882
12 | TCAGTA | 0.921
13 | ATGCCT | 1.13
14 | CATGCA | 0.832
15 | ACATGA | 0.812
16 | GTTATA | 0.984
17 | ATGTTA | 1.12
18 | GTCGAC | 0.746
19 | GTACGA | 0.996
20 | AACCGC | 0.924

Row | Sequence | binding signal
21 | GATGTT | 1.18
22 | ACTCAG | 0.878
23 | GCTGCA | 0.838
24 | GTGCGC | 0.796
25 | ACCATT | 0.998
26 | TGGGGT | 0.898
27 | CGCAAC | 0.838
28 | CCTTTT | 1.37
29 | GACCGA | 0.848
30 | TGGTGC | 0.789
31 | TGGCGT | 0.844
32 | CTATGG | 1.17
33 | AAAGTT | 1.43
34 | GTTACC | 0.805
35 | AATTCT | 2.25
36 | ATTCCT | 1.57
37 | CGCGCC | 0.847
38 | TGACAA | 1.06
39 | AGCATG | 0.95
40 | GTTTGA | 1.03

biological target: T1, ELF2 (UniProt Q15723); assay: as above; conditions: 10 mM Tris-HCl pH 7.5, 50 mM NaCl, 1 mM DTT, 4% glycerol, room temperature, 30 min; GST-TFs on glutathione beads, 16-mer random dsDNA library, 0.1% …; high values mean tight binding; double strand, one strand shown; scale: fold enrichment (6-mer frequency, TF over GST control)
T1 sequence: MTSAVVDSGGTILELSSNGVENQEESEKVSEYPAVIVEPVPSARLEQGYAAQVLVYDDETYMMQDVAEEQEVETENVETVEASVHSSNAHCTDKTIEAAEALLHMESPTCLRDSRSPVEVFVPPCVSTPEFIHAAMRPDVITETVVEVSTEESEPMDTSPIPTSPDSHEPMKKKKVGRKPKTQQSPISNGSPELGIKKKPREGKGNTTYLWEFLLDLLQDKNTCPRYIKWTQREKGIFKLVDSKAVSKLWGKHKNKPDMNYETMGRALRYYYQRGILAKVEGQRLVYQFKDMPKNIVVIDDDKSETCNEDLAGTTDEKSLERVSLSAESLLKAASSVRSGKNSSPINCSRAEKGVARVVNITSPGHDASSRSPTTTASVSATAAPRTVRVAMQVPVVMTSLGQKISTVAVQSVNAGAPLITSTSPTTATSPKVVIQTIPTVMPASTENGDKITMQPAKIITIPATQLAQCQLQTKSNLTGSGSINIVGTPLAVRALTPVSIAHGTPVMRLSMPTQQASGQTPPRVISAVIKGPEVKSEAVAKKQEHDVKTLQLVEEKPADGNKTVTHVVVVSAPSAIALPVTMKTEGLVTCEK

Row | Sequence | binding signal
41 | CGGATC | 1.01
42 | TCCTTC | 2.41
43 | CGGCTG | 0.965
44 | CCCGCT | 1.24
45 | TTGTAA | 1.24
46 | CTCCAA | 1.23
47 | CCAACA | 1.02
48 | ATGCCA | 0.965
49 | GTGGCC | 0.972
50 | TTGGGC | 1.04
51 | CCGTAT | 1.36
52 | TCAGTA | 0.927
53 | ATGCCT | 1.26
54 | CATGCA | 1.03
55 | ACATGA | 0.93
56 | GTTATA | 0.991
57 | ATGTTA | 1.19
58 | GTCGAC | 0.938
59 | GTACGA | 1.06
60 | AACCGC | 1.09

Row | Sequence | binding signal
61 | GATGTT | 1.27
62 | ACTCAG | 0.969
63 | GCTGCA | 0.989
64 | GTGCGC | 1
65 | ACCATT | 1.12
66 | TGGGGT | 0.987
67 | CGCAAC | 1.03
68 | CCTTTT | 1.53
69 | GACCGA | 0.788
70 | TGGTGC | 1.06
71 | TGGCGT | 0.953
72 | CTATGG | 1.17
73 | AAAGTT | 1.07
74 | GTTACC | 1.06
75 | AATTCT | 1.28
76 | ATTCCT | 1.48
77 | CGCGCC | 1.03
78 | TGACAA | 1.16
79 | AGCATG | 0.925
80 | GTTTGA | 1.15
